Results are given in words; binding and its absence hold for the method and conditions named. In cells and extracts the contact can be indirect. Some entries that bind do so weakly or less than the wild type.

The record followed here is article PMC6683473.

This assay concerns the target T1, Smad4 (human (endogenous in PANC-1)), Q13485.
T1 chain: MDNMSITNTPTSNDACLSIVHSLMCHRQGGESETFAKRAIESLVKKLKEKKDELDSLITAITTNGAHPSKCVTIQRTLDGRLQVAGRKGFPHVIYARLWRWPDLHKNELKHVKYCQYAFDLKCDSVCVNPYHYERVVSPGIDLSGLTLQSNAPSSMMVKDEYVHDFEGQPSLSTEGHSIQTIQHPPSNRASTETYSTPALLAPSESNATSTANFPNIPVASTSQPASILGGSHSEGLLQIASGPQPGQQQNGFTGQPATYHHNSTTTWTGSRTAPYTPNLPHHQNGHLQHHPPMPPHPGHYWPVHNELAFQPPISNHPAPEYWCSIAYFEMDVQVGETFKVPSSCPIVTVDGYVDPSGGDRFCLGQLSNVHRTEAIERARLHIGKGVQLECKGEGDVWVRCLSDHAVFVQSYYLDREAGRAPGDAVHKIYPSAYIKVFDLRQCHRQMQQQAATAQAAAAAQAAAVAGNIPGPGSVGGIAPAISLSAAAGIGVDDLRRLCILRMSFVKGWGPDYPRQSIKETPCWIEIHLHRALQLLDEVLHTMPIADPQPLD
The experiment in a line: co-IP; PANC-1 cells treated with TGF-β (10 ng/mL, 1 h); which protein was precipitated is not told; no co-IP protocol in the methods. Conditions: remark: other sources report otherwise.

B1: Smad2, Q15796 1-467 (protein)
chain: MSSILPFTPPVVKRLLGWKKSAGGSGGAGGGEQNGQEEKWCEKAVKSLVKKLKKTGRLDELEKAITTQNCNTKCVTIPSTCSEIWGLSTPNTIDQWDTTGLYSFSEQTRSLDGRLQVSHRKGLPHVIYCRLWRWPDLHSHHELKAIENCEYAFNLKKDEVCVNPYHYQRVETPVLPPVLVPRHTEILTELPPLDDYTHSIPENTNFPAGIEPQSNYIPETPPPGYISEDGETSDQQLNQSMDTGSPAELSPTTLSPVNHSLDLQPVTYSEPAFWCSIAYYELNQRVGETFHASQPSLTVDGFTDPSNSERFCLGLLSNVNRNATVEMTRRHIGRGVRLYYIGGEVFAECLSDSAIFVQSPNCNQRYGWHPATVCKIPPGCNLKIFNNQEFAALLAQSVNQGFEAVYQLTRMCTIRMSFVKGWGAEYRRQTVTSTPCWIELHLNGPLQWLDKVLTQMGSPSVRCSSMS
As to B1, the binding entry is on record as “binds”.

B2: Smad3, P84022 1-425 (protein)
chain: MSSILPFTPPIVKRLLGWKKGEQNGQEEKWCEKAVKSLVKKLKKTGQLDELEKAITTQNVNTKCITIPRSLDGRLQVSHRKGLPHVIYCRLWRWPDLHSHHELRAMELCEFAFNMKKDEVCVNPYHYQRVETPVLPPVLVPRHTEIPAEFPPLDDYSHSIPENTNFPAGIEPQSNIPETPPPGYLSEDGETSDHQMNHSMDAGSPNLSPNPMSPAHNNLDLQPVTYCEPAFWCSISYYELNQRVGETFHASQPSMTVDGFTDPSNSERFCLGLLSNVNRNAAVELTRRHIGRGVRLYYIGGEVFAECLSDSAIFVQSPNCNQRYGWHPATVCKIPPGCNLKIFNNQEFAALLAQSVNQGFEAVYQLTRMCTIRMSFVKGWGAEYRRQTVTSTPCWIELHLNGPLQWLDKVLTQMGSPSIRCSSVS
In the case of B2, the binding result was “binds”.
